Experimental data as given in US20240262922A1.
Results are given in words; binding and its absence hold for the method and conditions named. Some results given as binding are weak or reduced against the parent protein; the word gives no strength.

Protein sequences, listed by entry. Tags and fused reporters are not part of them. Lines headed by an entry give the natural chain unless they say otherwise; changes in a name come on top.
UniProt P23510: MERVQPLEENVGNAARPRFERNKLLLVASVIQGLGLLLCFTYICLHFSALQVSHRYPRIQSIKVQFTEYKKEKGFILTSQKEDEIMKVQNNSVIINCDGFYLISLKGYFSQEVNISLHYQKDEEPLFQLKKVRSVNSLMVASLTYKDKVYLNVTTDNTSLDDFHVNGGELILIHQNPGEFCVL

Biological target: full-length human OX40L on the cell surface (human) (UniProt P23510)
Test: receptor occupancy by flow cytometry on MDDCs of the allogenic MDDC:T MLR at day 4; free OX40L stained with anti-OX40L clone ik-1, % occupancy calculated from MFI

- binding: binds
B1: Ref1_Anti-OX40L (US Pat. No. 9,139,653) (antibody, V domains shown)
VH: EVQLVESGGGLVQPGGSLRLSCAASGFTFSNYAMNWVRQAPGKGLEWVSTISGSGGATRYADSVKGRFTISRDNSRNTVYLQMNSLRVEDTAVFYCTKDRLIMATVRGPYYYGMDVWGQGTTVTVSS
VL: DIQMTQSPSSLSASVGDRVTITCRASQSISSYLNWYQQKPGKAPNLLIYAASSLQSGVPSRFSGSGSETDFTLTISSLQPEDFATYYCQQSHSVSFTFGPGTKVDIK
